Data from US20220265657A1, “ADMINISTRATION METHOD AND DOSAGE REGIMEN FOR TREATMENT OF NEURODEGENERATIVE DISEASES USING TRAMETINIB AND MARKERS” (GENUV INC., priority 2019, published 2022).

Key:
5XFAD mice [1] = details: 8-month old 5XFAD mice, 2 mg/kg donepezil
5XFAD mice [2] = details: 8-month-old 5XFAD mice, 2 mg/kg donepezil, 3 months oral

SMILES: COc1cc2c(cc1OC)C(=O)C(CC1CCN(Cc3ccccc3)CC1)C2 (centres unmarked) [donepezil]
- MBP level (5XFAD mice [1]): as low as that of the vehicle treated 5XFAD mice
- decrease of plasma cathepsin B level compared to vehicle treated 5XFAD mice (5XFAD mice [2]): 97.13%
